From patent US20060228358A1 (UCB, published 2006)
Results are given in words; binding and its absence hold for the method and conditions named. Some results given as binding are weak or reduced against the parent protein; the word gives no strength.

Chains of the proteins cited; added tags and fusions are not shown. Residues count along the entry.
UniProt P01584, residues 117-269: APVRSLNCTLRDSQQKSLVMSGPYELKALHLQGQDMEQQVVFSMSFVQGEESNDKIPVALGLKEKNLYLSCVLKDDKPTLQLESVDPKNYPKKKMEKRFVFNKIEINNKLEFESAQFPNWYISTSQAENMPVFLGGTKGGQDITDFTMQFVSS

Molecular target: T1, recombinant human IL-1β (human, UniProt P01584 117-269)
T1 construct: Only the background speaks of the mature 17 kDa form; also called hIL-1β; interleukin-1β
Test: BIAcore

B1: CDR-grafted IC8 antibody gH2gL3 (antibody, V domains shown)
VH: EVQLVESGGGLVQPGGSLRLSCAASGFDFSRYDMSWVRQAPGKGLEWVAYISSGGGSTYFPDTVKGRFTISRDNAKNTLYLQMNSLRAEDTAMYYCARQNKKLTWFDYWGQGTLVTVSS
VL: DIQMTQSPSSLSASVGDRVTITCRTSGNIHNYLTWYQQKPGKAPQLLIYNAKTLADGVPSRFSGSGSGTQFTLTISSLQPEDFANYYCQHFWSLPFTFGQGTKVEIKR
notes: Human gamma-4 heavy and kappa light constant regions (pMRR14 and pMRR10), expressed in CHO-L761 cells
  binding: binds
